The text below walks through data of the supplement of paper PMC11348887.

Conditions in all cases: 5 µM; treatment: days 7-14 after plating, readout day 21
Assay [1] has as its system hPSC-derived cortical neurons (WA09). Nature of the assay: nucleus area z-score vs screen plate; higher = larger nuclei (more mature).
Assay [2] has the same test system. Nature of the assay: total neurite length per nucleus (MAP2) z-score; higher = more neurite growth.
For assay [3] the test system is unchanged. Put plainly: nucleus roundness z-score vs screen plate; higher = rounder nuclei (more mature).
The test system is the same in assay [4]. Nature of the assay: KCl-induced FOS+/EGR-1+ double-positive nuclei fraction z-score (KCl minus unstimulated); higher = stronger activity-induced IEG response.

Counter-ions that a name gives are not always drawn. This is one part of the list. Small differences around the control level are noise.

For `CCNC(=O)CCC/C=C\C[C@@H]1[C@@H](/C=C/[C@@H](O)CCc2ccccc2)[C@H](O)C[C@@H]1O` [Bimatoprost], the nucleus area z-score in assay [1] was determined as 0.389. Also, in assay [2], the “total neurite length per nucleus (z-score)” value was -0.185. For the same compound, the nucleus roundness z-score in assay [3] came to 1.09. Moreover, in assay [4], the “KCl-induced FOS+/EGR-1+ double-positive nuclei fraction z-score” value stood at 1.48.

`COc1ccc(-c2cc(=O)c3c(OC)c(OC)c(OC)c(OC)c3o2)cc1OC` [Nobiletin] gave a nucleus area z-score in assay [1] of -1.39. Further, the “total neurite length per nucleus (z-score)” value in assay [2] is -1.35. In addition, in assay [3], the nucleus roundness z-score is -0.94. Besides, the “KCl-induced FOS+/EGR-1+ double-positive nuclei fraction z-score” value in assay [4] is -0.695.

Consider `Nc1nc(N)c2nc(-c3cccc(O)c3)cnc2n1`, for which the nucleus area z-score in assay [1] is -1.39. Also, in assay [2], the “total neurite length per nucleus (z-score)” value was -0.172. The nucleus roundness z-score in assay [3] was -0.263. Besides, the “KCl-induced FOS+/EGR-1+ double-positive nuclei fraction z-score” value in assay [4] is -0.169.

For the compound `CC1(C)[C@@H](O)CC[C@]2(C)[C@H]3C(=O)C=C4[C@@H]5C[C@@](C)(C(=O)O)CC[C@]5(C)CC[C@@]4(C)[C@]3(C)CC[C@@H]12` [Enoxolone], the nucleus area z-score in assay [1] was -0.745. Also, the “total neurite length per nucleus (z-score)” value in assay [2] was found to be 0.396. The compound further registered a nucleus roundness z-score in assay [3] of 0.0248. Also, the “KCl-induced FOS+/EGR-1+ double-positive nuclei fraction z-score” value in assay [4] is -0.245.

`Nc1nc(Nc2ccc(S(N)(=O)=O)cc2)nn1C(=O)c1c(F)cccc1F`: the nucleus area z-score in assay [1] was -2.34. Moreover, the “total neurite length per nucleus (z-score)” value in assay [2] was -0.594. The compound further showed a nucleus roundness z-score in assay [3] of -3.23. In addition, the “KCl-induced FOS+/EGR-1+ double-positive nuclei fraction z-score” value in assay [4] is -0.6.

Consider `N=C(N)NC(=N)NCCc1ccccc1` [Phenformin HCl], for which the nucleus area z-score in assay [1] was 0.427. Besides, the “total neurite length per nucleus (z-score)” value in assay [2] was 2.02. Besides, the nucleus roundness z-score in assay [3] turned out to be 0.559. Further, in assay [4], the “KCl-induced FOS+/EGR-1+ double-positive nuclei fraction z-score” value is 0.463.

`COc1cccc(Nc2c(C(N)=O)cnc3c(C)cc(S(=O)(=O)c4cccc(C(=O)N(C)C)c4)cc23)c1`: the nucleus area z-score in assay [1] was -2.2. The “total neurite length per nucleus (z-score)” value in assay [2] was 0.652. Besides, the nucleus roundness z-score in assay [3] is 0.114. Besides, in assay [4], the “KCl-induced FOS+/EGR-1+ double-positive nuclei fraction z-score” value was determined as 0.931.

In assay [1], `Cc1cc(C)c2c(c1)[C@@H](N(Cc1cc(C(F)(F)F)cc(C(F)(F)F)c1)c1nnn(C)n1)CCCN2C[C@H]1CC[C@H](C(=O)O)CC1` came in with a nucleus area z-score of 0.817. In addition, the “total neurite length per nucleus (z-score)” value in assay [2] was 0.275. This compound also displayed a nucleus roundness z-score in assay [3] of 0.767. Also, in assay [4], the “KCl-induced FOS+/EGR-1+ double-positive nuclei fraction z-score” value is -0.208.

In assay [1], `O=c1oc2ccccc2c(O)c1Cc1c(O)c2ccccc2oc1=O` [Dicoumarol] came in with a nucleus area z-score of 0.481. For the same compound, the “total neurite length per nucleus (z-score)” value in assay [2] came out at 0.23. This compound showed a nucleus roundness z-score in assay [3] of 0.0693. Besides, the “KCl-induced FOS+/EGR-1+ double-positive nuclei fraction z-score” value in assay [4] turned out to be 0.183.

For the compound `CCn1c2ccccc2c2cc(Nc3ccnc(NCCCN4CCOCC4)n3)ccc21`, the nucleus area z-score in assay [1] was -13.5. The “total neurite length per nucleus (z-score)” value in assay [2] is -3.77. Besides, the nucleus roundness z-score in assay [3] was 0.81. Besides, the “KCl-induced FOS+/EGR-1+ double-positive nuclei fraction z-score” value in assay [4] is -0.571.
